From PubChem BioAssay AID1671190 (National Center for Advancing Translational Sciences (NCATS), 2021)
Hit rate of the full screen: of about 580,000 compounds, about 6,100 (1.1%) were called active. The shares of active, inactive and inconclusive entries below differ from those in the screen. Calls come from the whole dose curve; as a rule, active = well fitted inhibition curve with a large enough effect; inconclusive = small, poorly fitted or top-dose-only effect, or another doubt; inactive = no such curve, though single readings can be large or run the other way. Where the call is inconclusive, the potency comes from a doubtful curve fit.

Amino acid sequences for entries named in this document (tags omitted). A change or cut given only in a name is not applied to a line headed by its entry.
UniProt P18054: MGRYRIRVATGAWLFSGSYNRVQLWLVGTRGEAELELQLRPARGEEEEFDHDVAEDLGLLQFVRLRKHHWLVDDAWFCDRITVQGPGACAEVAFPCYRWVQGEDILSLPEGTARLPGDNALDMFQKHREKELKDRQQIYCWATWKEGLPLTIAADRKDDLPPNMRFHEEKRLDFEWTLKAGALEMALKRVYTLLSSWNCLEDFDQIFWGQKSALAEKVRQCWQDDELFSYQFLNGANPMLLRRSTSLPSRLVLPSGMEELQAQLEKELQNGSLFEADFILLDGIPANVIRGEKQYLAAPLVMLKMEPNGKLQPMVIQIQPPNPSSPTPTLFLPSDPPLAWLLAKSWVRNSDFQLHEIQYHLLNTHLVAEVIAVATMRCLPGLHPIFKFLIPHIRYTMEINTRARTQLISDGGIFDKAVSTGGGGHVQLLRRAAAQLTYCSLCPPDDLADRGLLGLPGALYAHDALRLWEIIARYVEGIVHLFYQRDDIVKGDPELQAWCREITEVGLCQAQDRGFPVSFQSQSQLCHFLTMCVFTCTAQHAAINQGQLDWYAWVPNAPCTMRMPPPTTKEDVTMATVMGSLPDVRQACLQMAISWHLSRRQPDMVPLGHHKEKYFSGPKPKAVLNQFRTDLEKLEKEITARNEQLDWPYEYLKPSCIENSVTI

molecular target: Polyunsaturated fatty acid lipoxygenase ALOX12 (Homo sapiens) (UniProt P18054); assay: Primary qHTS assay for inhibitors of human arachidonate 12S-lipoxygenase (ALOX12): Round 2; settings: purified 12hLO, xylenol orange hydroperoxide absorbance; series mostly up to 108 µM
In short: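 Purified human 12hLO (150 nM final) in 25 mM Hepes, 0.01% Triton X-100, pH 7.0 was preincubated 15 min at room temperature with compound. Then 40 uM arachidonic acid was added, 30 min. Hydroperoxide was read by Fe-XO absorbance ratio 573/405 nm.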
Potency is the fitted concentration of half-maximal effect.

SMILES | Potency
CCCCn1nc(C(=O)Nc2nc3c(s2)CCCCC3)c2ccccc2c1=O | inconclusive: 44.7 µM [inhibitor, single point]
Cc1ccc(-c2ccc(OCC(=O)Nc3ccc(C(=O)N(C)C)cc3)cc2)cc1 | inactive
CCNC(=S)Nc1cc(-c2ccc(Cl)cc2)[nH]n1 | active: 5.62 µM
O=C(c1cc(F)ccc1F)N1CCC2(CC1)NC(=O)N(Cc1ccccc1)C2=O | inconclusive: 3.55 µM [inhibitor, full curve, poor fit]
Cc1cccc(NC(CNS(=O)(=O)c2ccc(Cl)cc2)c2ccccc2)c1 (stereo unspecified) | inconclusive: 31.6 µM [inhibitor, partial curve, poor fit]
NC(=O)C1=C(c2ccccc2)c2ccccc2C1=O | inconclusive: 12.6 µM [inhibitor, partial curve, poor fit]
Oc1ccc(NC(=S)N=Nc2c(O)[nH]c3ccc(Br)cc23)cc1 | inconclusive: 44.7 µM [inhibitor, partial curve]
Cc1nc(C(F)(F)F)ccc1C(=O)N1CCC1(C)C(=O)NS(=O)(=O)c1cccc(F)c1 (stereo unspecified) | active: 44.7 µM
COC(=O)Cn1c(=O)c2c(n(Cc3ccccc3)c1=O)N/C(=C/c1ccc(OC)cc1)C2=O | inconclusive: 44.7 µM [inhibitor, partial curve, poor fit]
Cc1ccc(/C=C(\C#N)C(=O)Nc2cccc(Cl)c2)o1 | inactive
Cc1ccccc1C(=O)N1CCN(c2oc(-c3ccccc3F)nc2C#N)CC1 | inactive
Cc1ccc2c(c1)c1c(n2CC(O)CNC2CCCC2)CCCC1 (stereo unspecified) | inconclusive: 17.8 µM [inhibitor, partial curve]
Cc1ccc2nc(C)c(C(=O)N3CCN(c4ccccc4F)CC3)cc2c1 | inactive
CN1CC(=O)N(C2CCCNC2)Cc2c1ncnc2N1CCC(N2CCOCC2)CC1 (stereo unspecified) | inconclusive: 3.16 µM [inhibitor, full curve, poor fit]
O=c1[nH]c(C(Cl)Cl)nc2sc3c(c12)CCN(Cc1ccccc1)C3 | inconclusive: 50.1 µM [inhibitor, partial curve, poor fit]
Cc1nnc(SCC(=O)NCCC2=CCCCC2)[nH]c1=O | inconclusive: 112 µM [inhibitor, single point]
CCN(CC)CCC(c1ccc(N(C)C)cc1)c1c(O)cc(OC)cc1OC (stereo unspecified) | inactive
N#Cc1c(N)n(CCOC(=O)c2cccc(Br)c2)c2nc3ccccc3nc12 | inconclusive: 35.5 µM [inhibitor, single point]
O=C(Nc1ccc(I)cc1)c1cc(-c2ccc[nH]2)n[nH]1 | inconclusive: 25.1 µM [inhibitor, partial curve]
CC(NC(=O)Cn1c(NCCO)nc2ccccc21)c1ccccc1 (stereo unspecified) | inactive
CCCCn1nnc(NC(=S)NC(=O)c2cccs2)n1 | inconclusive: 44.7 µM [inhibitor, partial curve, poor fit]
Cc1ccc(-c2cn(CCC(=O)O)c(-c3ccc(Cl)nc3)n2)cc1 | inconclusive: 39.8 µM [inhibitor, partial curve, poor fit]

4 of these compounds in another layout:
SMILES,Potency
O=C(Nc1ccc(I)cc1)c1cc(-c2ccc[nH]2)n[nH]1,"inconclusive: 25.1 µM [inhibitor, partial curve]"
CC(NC(=O)Cn1c(NCCO)nc2ccccc21)c1ccccc1 (stereo unspecified),inactive
CCCCn1nnc(NC(=S)NC(=O)c2cccs2)n1,"inconclusive: 44.7 µM [inhibitor, partial curve, poor fit]"
Cc1ccc(-c2cn(CCC(=O)O)c(-c3ccc(Cl)nc3)n2)cc1,"inconclusive: 39.8 µM [inhibitor, partial curve, poor fit]"

Further compounds

SMILES | Potency
COc1ccc(CC(=O)N2CCN(c3ccccc3)CC2)cc1 | inconclusive: 89.1 µM [inhibitor, single point]
CC1(C(=O)NC(=S)N(CCC#N)c2ccccc2)CC1(Cl)Cl (stereo unspecified) | inconclusive: 10 µM [inhibitor, full curve, poor fit]
Cc1ccc(C(NC(=O)C(C)C)c2cccnc2)cc1C (stereo unspecified) | inactive
CCOC(=O)C1=C(C)Nc2ncnn2C1c1cccc(O)c1 (stereo unspecified) | inconclusive: 2.51 µM [inhibitor, full curve, poor fit]
O=C(NN1C(=O)NC2(CCCCC2)C1=O)c1ccc(-c2ccc([N+](=O)[O-])cc2)o1 | inconclusive: 31.6 µM [inhibitor, full curve, poor fit]
Cc1[nH]c2ccccc2c1C(=O)COC(=O)c1cc2ccccc2[nH]1 | inconclusive: 50.1 µM [inhibitor, partial curve, poor fit]
CCCC(C(=O)O)n1c(O)c(C=C2N=c3ccccc3=N2)sc1=S (stereo unspecified) | inconclusive: 100 µM [inhibitor, single point]
Fc1c(F)c(C(F)(F)F)c(F)c(F)c1N/N=C/c1ccc(Br)cc1 | inconclusive: 28.2 µM [inhibitor, partial curve, poor fit]
COc1ccc(OC)c(S(=O)(=O)n2cc(C)nc2-c2ccccc2)c1 | inconclusive: 28.2 µM [inhibitor, single point]
CC(=O)c1cccc(Nc2ccc(-c3ccccc3F)nn2)c1 | inactive
CCOc1ccc(/C=C/C(=O)c2cccc(C#N)c2)cc1OC | inconclusive: 35.5 µM [inhibitor, partial curve]
Oc1ccc2sc(-c3ccccc3O)c(-c3ccc(OCCN4CCCCC4)cc3)c2c1 | inconclusive: 50.1 µM [inhibitor, partial curve, poor fit]
COc1ccc(C(=O)N2CCC(C)(C(=O)O)C2)c(OC)c1 (stereo unspecified) | inconclusive: 100 µM [inhibitor, single point]
COC(=O)[C@@]12C[C@@H](CC(=O)NCc3ccc(OC)c(OC)c3)C(=O)N(Cc3ccc4c(c3)OCO4)C1=CCC(C)(C)C2 | inactive
O=c1[nH]c2ccccc2n1CCCSCCCn1c(=O)[nH]c2ccccc21 | inactive
CCOC(=O)c1c(CN(C)C)n(C)c2c(O)c(N=NC(N)=O)c3ccc(Br)cc3c12 | inconclusive: 39.8 µM [inhibitor, partial curve, poor fit]
CCOC(=O)C(Cc1c(F)cccc1F)(NC(C)=O)C(=O)OCC | inconclusive: 31.6 µM [inhibitor, single point]
O=C1CC2CCCC(C1)N2C(=O)N1CCCC1 | inactive
CC(=O)NC(c1ccc2ccccc2c1)c1ccc2cccnc2c1O (stereo unspecified) | inconclusive: 39.8 µM [inhibitor, partial curve]
Cc1cc(C)nc(NC(N)=S)n1 | inconclusive: 44.7 µM [inhibitor, partial curve, poor fit]
OC(c1cc(F)cc(Cl)c1)c1ncc(-c2ccc3ccccc3c2)[nH]1 (stereo unspecified) | inconclusive: 79.4 µM [inhibitor, partial curve, poor fit]
CCCn1c(C)cc(-c2csc(N)n2)c1C | active: 35.5 µM

SMILES | Potency
CCN(CC)C(=O)Cn1c(=O)n(CC2CCC(C(=O)NC)CC2)c(=O)c2sccc21 (stereo unspecified) | inconclusive: 112 µM [inhibitor, single point]
Cc1cc(C(=O)CSc2nnc(N)s2)c(C)n1Cc1ccco1 | inactive
Cc1ccc(S(=O)(=O)N/N=C/c2cccc(OC3CSC3)c2)cc1 | inconclusive: 56.2 µM [inhibitor, partial curve, poor fit]
O=C(Oc1cccc2cccnc12)c1cccs1 | inconclusive: 112 µM [inhibitor, single point]
COc1ccc(/C=N\Nc2ccc([N+](=O)[O-])cc2[N+](=O)[O-])c(C(=O)O)c1OC | inconclusive: 44.7 µM [inhibitor, partial curve]
O=C1CCCC2=C1C(c1ccsc1)CC(=O)N2c1ccccc1 (stereo unspecified) | inactive
O=S(=O)(c1ccc2c(c1)OCCO2)N1CCC(c2nc3ccc(Cl)cc3[nH]2)CC1 | inactive
O=C(CCn1c(=O)c2sccc2n(CC(=O)Nc2ccccc2)c1=O)NCc1ccccc1Cl | inconclusive: 158 µM [inhibitor, partial curve, poor fit]
CC1CN(Cc2ccc(C#N)cc2Cl)CC(C)O1 (stereo unspecified) | inconclusive: 50.1 µM [inhibitor, partial curve, poor fit]
CCOc1cccc2cc(-c3cn4c(n3)sc3ccccc34)c(=O)oc12 | inconclusive: 89.1 µM [inhibitor, partial curve, poor fit]
CS(=O)(=O)N(CC(=O)N1CCCCCC1)c1ccc(Cl)cc1 | inconclusive: 89.1 µM [inhibitor, partial curve, poor fit]
COCCN1C(=O)C(O)=C(C(C)=O)C1c1ccc(F)cc1 (stereo unspecified) | inconclusive: 7.94 µM [inhibitor, partial curve, poor fit]
O=C(Nc1nc(-c2ccco2)c(-c2ccco2)s1)c1ccco1 | active: 31.6 µM
CCC(c1nnnn1C1CCCC1)N1CCN(c2cccc(OC)c2)CC1 (stereo unspecified) | inconclusive: 31.6 µM [inhibitor, partial curve, poor fit]
CC(C)[C@H](NC(=O)[C@@H](NC(=O)C1CC(=O)N(c2ccc(F)cc2)C1)C(C)C)C(=O)O (stereo partly specified) | inconclusive: 100 µM [inhibitor, single point]
CCC1S/C(=N\S(=O)(=O)c2cccs2)N(C2CCCCC2)C1=O (stereo unspecified) | inconclusive: 56.2 µM [inhibitor, partial curve, poor fit]
COC(=O)c1sc2nc(-c3ccco3)ccc2c1N | inconclusive: 50.1 µM [inhibitor, partial curve, poor fit]
O=C(O)C(O)c1ccc(F)cc1 (stereo unspecified) | inconclusive: 39.8 µM [inhibitor, partial curve, poor fit]
CCn1c(=O)cc(SCC(=O)NCc2ccc(Cl)cc2)c2ccccc21 | inconclusive: 141 µM [inhibitor, partial curve, poor fit]
CCN(CC)CCCC(C)Nc1nccc2c(Cl)cccc12 (stereo unspecified) | inactive
Cc1nn2cc(-c3ccccc3)nc2[nH]c1=O | inconclusive: 15.8 µM [inhibitor, single point]
O=[N+]([O-])c1ccc(OCCCCN2CCc3ccccc3C2)cc1 | inconclusive: 0.316 µM [inhibitor, full curve, poor fit]
